This data set can be described thus: general procedure: Fmoc solid-phase peptide synthesis; amide resin (HAV6, ADTC5 precursors); Fmoc-Val-Wang resin (N-to-C cyclic peptide precursors); HATU, DIEA. The settings on record: whole synthesis, analytical HPLC, Luna C18 column.

Some results are limits rather than exact numbers.

Consider cyclo(1,7)acetyl-CDTPPVC-NH2, for which the “final HPLC purity” value is greater than 95% pure.

Source of the values: patent publication US20220227815A1 (University of Kansas, priority 2019, published 2022).
